Measurements taken from patent US10246455B2, “Histone deacetylase inhibitors” (Taipei Medical University, priority 2014, dated 2019).
Like-named read-outs stand apart in the source and are kept apart here. Some results were stated once for a whole list of compounds, not compound by compound.

Tested on: KB cell line (oral carcinoma)
Assay: IC50 in human cancer cell lines (inhibiting HDAC): KB
[1] = read-out: IC50, inhibiting HDAC in human cancer cell lines

Compound	IC50 [1] [µM]	IC50 (read-out: IC50, inhibiting HDAC in human cancer cell lines, listed as Compound 5) [µM]	IC50 (read-out: IC50, inhibiting HDAC in human cancer cell lines, listed as Compound 6) [µM]	IC50 (read-out: IC50, inhibiting HDAC in human cancer cell lines, listed as Compound 7) [µM]	IC50 (read-out: IC50, inhibiting HDAC in human cancer cell lines, listed as Compound 12) [µM]
O=C(/C=C/c1cccc(S(=O)(=O)n2ccc3ncccc32)c1)NO [Compound 5, (E)-3-(3-(1H-Pyrrolo[3,2-b]pyridin-1-ylsulfonyl)phenyl)-N-hydroxyacrylamide]	< 1	< 6			
O=C(/C=C/c1cccc(S(=O)(=O)n2ccc3ccncc32)c1)NO [Compound 6, (E)-3-(3-(1H-Pyrrolo[2,3-c]pyridin-1-ylsulfonyl)phenyl)-N-hydroxyacrylamide]	< 1		< 6		
O=C(/C=C/c1cccc(S(=O)(=O)n2ccc3cccnc32)c1)NO [Compound 7, (E)-3-(3-(1H-Pyrrolo[2,3-b]pyridin-1-ylsulfonyl)phenyl)-N-hydroxyacrylamide]	< 1			< 6	
O=C(/C=C/c1ccc(S(=O)(=O)n2ccc3cccnc32)cc1)NO [Compound 12, (E)-3-(4-(1H-Pyrrolo[2,3-b]pyridin-1-ylsulfonyl)phenyl)-N-hydroxyacrylamide]	< 1				< 6
